# Patent publication US6979686B1, “Substituted pyrazoles as p38 kinase inhibitors” (Pharmacia Corporation, priority 2001, dated 2005)
# The chains behind the UniProt entries cited, without tags or fusion partners.
# UniProt Q16539, whole entry: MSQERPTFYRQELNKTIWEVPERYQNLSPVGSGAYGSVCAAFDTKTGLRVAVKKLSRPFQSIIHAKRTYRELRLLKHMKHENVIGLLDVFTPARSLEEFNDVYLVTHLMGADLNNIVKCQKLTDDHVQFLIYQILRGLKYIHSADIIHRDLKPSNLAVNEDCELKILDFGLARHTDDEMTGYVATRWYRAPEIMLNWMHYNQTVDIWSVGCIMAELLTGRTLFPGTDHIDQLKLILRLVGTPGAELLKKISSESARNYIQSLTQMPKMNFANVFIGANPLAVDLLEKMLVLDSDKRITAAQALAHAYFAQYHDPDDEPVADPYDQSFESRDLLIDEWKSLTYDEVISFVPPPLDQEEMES
# pIC50: −log10 of the molar value. Structures were worked out from names or drawings and are uncertain.
# Assays:
# human p38 kinase alpha = human p38 kinase alpha (Homo sapiens, UniProt Q16539); assay: p38 kinase in vitro assay, phosphorylation of biotinylated PHAS-I with 32P-ATP; format: biochemical; details: read-out: P38 alpha kinase IC50
# [1] = tested on: TNF-α, U937 human histiocytic lymphoma cell line; assay: LPS stimulation of TNF production by U937 cells; format: cell-based; details: read-out: U937 Cell IC50, human U937 cells stimulated with LPS
smiles,measurement,setting,value
CN(C)C(=O)NCc1[nH]nc(-c2ccc(F)cc2)c1-c1ccncc1,pIC50,human p38 kinase alpha,6.25
same,pIC50,[1],< 6.00
